Data as given in PubChem BioAssay AID504795 (Drosophila RNAi Screening Center, 2011).

Aim: 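Fly genes whose loss alters neurite growth or neural cell form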 (primary screen)
System: primary Drosophila neurons and glia
Knock-down reagent: long dsRNA against Drosophila genes, 250 ng dsRNA per well
Duration: one week
Read-out: 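GFP-labelled neurons and glia imaged live by automated microscope one week after 250 ng dsRNA per well; morphology scored by eye as descriptive phenotype terms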
This is not the whole library: the list holds selected reagents. 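Every listed dsRNA shows some phenotype; how reagents were selected for listing is not stated.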 A plus sign joins genes that one reagent is predicted to hit. Further read-outs or replicates are left out here.

phenotype seen, replicate 1, by gene and reagent
luna: DRSC05253 too many neurite branches
HDAC4: DRSC19780 sheet-like cell extensions
dgt3: DRSC04349 axon bundles split apart
D19A: DRSC11133 axon bundles split apart
hppy: DRSC07015 beaded; swollen axons
CG5913: DRSC15916 reduced axon outgrowth
CG7329: DRSC03046 fewer cells
RpL37-1: DRSC20149 sheet-like cell extensions; DRSC21646 too many neurite branches
CG4364: DRSC02742 axon bundles split apart
Cib2: DRSC04535 fewer cells
Rac2: DRSC11262 sheet-like cell extensions
SP: DRSC09664 abnormal cell clusters
CG11811: DRSC09862 axon bundles split apart
CG12971: DRSC11681 too many neurite branches
Srp9: DRSC10973 sheet-like cell extensions
Dbx: DRSC08270 beaded; swollen axons
Lcp4: DRSC07458 too many neurite branches
eIF4G1: DRSC17218 beaded; swollen axons
Ser: DRSC16856 axon bundles split apart
CG30222: DRSC04262 fewer cells
CG17154: DRSC10253 abnormal cell clusters
Khc: DRSC07448 beaded; swollen axons
CG1394: DRSC19539 too many neurite branches
eIF4E4: DRSC09701 fewer cells
CG13314: DRSC09985 axon bundles split apart
dup: DRSC07088 axon bundles split apart
Syngr: DRSC06003 fewer cells
Nuak: DRSC14415 abnormal cell clusters; DRSC14416 too many neurite branches
Pldn: DRSC10137 cell fragments present
CG33489: DRSC10588 abnormal cell clusters
CG10853: DRSC08164 too many neurite branches
Orai: DRSC05684 axon bundles split apart
His4:CG33885 + His4:CG33883 + His4:CG33889 + 20 more: DRSC21268 axon bundles split apart
ATPsyngamma: DRSC14094 sheet-like cell extensions
TM9SF4: DRSC02537 too many neurite branches
CG13086: DRSC02190 abnormal cell clusters
CG14245: DRSC14740 axon bundles split apart
RpL34a: DRSC15964 too many neurite branches
CG42700: DRSC06292 too many neurite branches
CG15345 (retired record): DRSC22712 axon bundles split apart
Adk2: DRSC09827 axon bundles split apart
CG10195: DRSC02026 abnormal cell clusters
CG11035: DRSC14287 abnormal cell clusters
CG16854: DRSC02536 too many neurite branches
CG5770: DRSC06954 axon bundles split apart
bdwf: DRSC15532 too many neurite branches
CR11700 (retired record): DRSC17794 weaker green signal
CG34281: DRSC14807 axon bundles split apart
tst + CG10375: DRSC14237 more neurite growth
Capr: DRSC10346 abnormal cell clusters
Daao1: DRSC06131 reduced axon outgrowth
Miox: DRSC10747 too many neurite branches
Cda5: DRSC21330 axon bundles split apart
PH4alphaPV: DRSC22400 reduced axon outgrowth
sdt: DRSC17861 axon bundles split apart
RpL21: DRSC03704 beaded; swollen axons
CG31917 + Tfb5: DRSC02362 axon bundles split apart
spri: DRSC17846 abnormal cell clusters
Nsf2: DRSC22104 too many neurite branches
Ugt37C1: DRSC07416 axon bundles split apart

Reprinted from the entries so far, 20 entries:
phenotype seen, replicate 1, by gene and reagent
Orai: DRSC05684 axon bundles split apart
His4:CG33885 + His4:CG33883 + His4:CG33889 + 20 more: DRSC21268 axon bundles split apart
ATPsyngamma: DRSC14094 sheet-like cell extensions
TM9SF4: DRSC02537 too many neurite branches
CG13086: DRSC02190 abnormal cell clusters
CG14245: DRSC14740 axon bundles split apart
RpL34a: DRSC15964 too many neurite branches
CG42700: DRSC06292 too many neurite branches
CG15345 (retired record): DRSC22712 axon bundles split apart
Adk2: DRSC09827 axon bundles split apart
CG10195: DRSC02026 abnormal cell clusters
CG11035: DRSC14287 abnormal cell clusters
CG16854: DRSC02536 too many neurite branches
CG5770: DRSC06954 axon bundles split apart
bdwf: DRSC15532 too many neurite branches
CR11700 (retired record): DRSC17794 weaker green signal
CG34281: DRSC14807 axon bundles split apart
tst + CG10375: DRSC14237 more neurite growth
Capr: DRSC10346 abnormal cell clusters
Daao1: DRSC06131 reduced axon outgrowth

Next results follow.
phenotype seen, replicate 1, by gene and reagent
CG11437: DRSC11659 fewer cells
vex: DRSC19651 fewer cells
vers: DRSC10715 too many neurite branches
CG6962: DRSC16153 too many neurite branches
bves: DRSC20554 sheet-like cell extensions
Smyd3: DRSC17744 too many neurite branches
Adgf-B: DRSC10568 cell fragments present
CG10102 (retired record): DRSC05963 axon bundles split apart
Alp2: DRSC04354 reduced axon outgrowth
CG17359: DRSC10265 sheet-like cell extensions
skd: DRSC11898 abnormal cell clusters
kek3: DRSC03553 sheet-like cell extensions
CG12065: DRSC17799 axon bundles split apart
CG31140: DRSC15904 too many neurite branches
Nepl16: DRSC14650 reduced axon outgrowth
CG12377 (retired record): DRSC11672 axon bundles split apart
ND-B14.5AL: DRSC11795 reduced axon outgrowth
CG32986: DRSC02509 reduced axon outgrowth
CG13337: DRSC06371 axon bundles split apart
GluRIB + CG42509 (retired record): DRSC10258 too many neurite branches
CG17127: DRSC02581 too many neurite branches
CG31781 (retired record): DRSC02432 axon bundles split apart
CG17681: DRSC02632 axon bundles split apart
Muc91C: DRSC21696 beaded; swollen axons
Fam92: DRSC02952 abnormal cell clusters
CG11537: DRSC08200 too many neurite branches
jv: DRSC08832 axon bundles split apart
Pcyt2: DRSC08531 axon bundles split apart
CG2841: DRSC22106 axon bundles split apart
Cpr65Ax2 + Cpr65Ax1: DRSC10344 too many neurite branches
Pcf11: DRSC05983 sheet-like cell extensions
RpS19a: DRSC20281 too many neurite branches
CG33225: DRSC03881 fewer cells
RpS3A: DRSC17168 too many neurite branches
Act88F: DRSC14105 sheet-like cell extensions
ND-ACP: DRSC08724 axon bundles split apart
Rpn1: DRSC11274 axon bundles split apart
vg: DRSC07715 axon bundles split apart
Rnmt: DRSC03558 axon bundles split apart
CG33308: DRSC01419 abnormal cell clusters
E(spl)m3-HLH: DRSC16694 axon bundles split apart
CG31797: DRSC02476 axon bundles split apart
RpL22: DRSC18707 reduced axon outgrowth; DRSC22819 too many neurite branches
CG33278: DRSC10336 fewer cells
ATPsynE: DRSC15476 axon bundles split apart
MAGE: DRSC12504 too many neurite branches
CG30419: DRSC22519 abnormal cell clusters
RhoL: DRSC16824 axon bundles split apart
Cda4: DRSC20641 too many neurite branches
CG30457: DRSC06661 beaded; swollen axons
fru: DRSC16953 axon bundles split apart
Hr3: DRSC06118 axon bundles split apart
CG5004: DRSC19929 fewer cells; DRSC19930 axon bundles split apart; DRSC20123 axon bundles split apart
TotE: DRSC21355 reduced axon outgrowth
AcCoAS: DRSC22850 axon bundles split apart
CG43897: DRSC10965 abnormal cell clusters
CG8197: DRSC07105 fewer cells
CG16815: DRSC02521 abnormal cell clusters
CG13029: DRSC09909 too many neurite branches
CG32137: DRSC10271 cell fragments present
beta'COP: DRSC03492 reduced axon outgrowth
CG13323: DRSC06360 reduced axon outgrowth
Agpat2: DRSC03532 axon bundles split apart
pygo: DRSC14322 too many neurite branches
Or74a: DRSC11245 abnormal cell clusters
Cog2: DRSC16987 abnormal cell clusters
Sec23: DRSC12387 too many neurite branches
CG42729: DRSC10236 beaded; swollen axons
mgl: DRSC17859 too many neurite branches
Tip60: DRSC18661 reduced axon outgrowth
Fili: DRSC04445 axon bundles split apart
Muc4B: DRSC18063 reduced axon outgrowth
PGRP-SB2: DRSC11092 reduced axon outgrowth
